Data taken from PubChem BioAssay AID2685 (National Center for Advancing Translational Sciences (NCATS), 2010).
Some of the results follow. Shown are side measurements of this screen, not its main read-out; they come without a call. Compounds called inactive in the main read-out are mostly missing here. Potencies come from curve fits of mixed quality, noted in brackets.

Assay: qHTS Assay for Lipid Storage Modulators in Drosophila S3 Cells;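 as to cell number change: cells counted by Cell Tracker Red CMTPX staining in the red channel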
Conditions: BODIPY lipid droplet fluorescence, 18-24 h; for cell number change: measured here: cell count max response, cells fed with added oleic acid
Summary of the method: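 Laser-scanning cytometry quantifies lipid droplet accumulation (500–530 nm total intensity; droplet/cell object ratio) in oleic acid-fed (400 uM added) Drosophila S3 cells treated with a concentration series. 20 uM Triacsin C defined 100% inhibition.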

[1] = measured here: lipid fluorescence (Fed channel) AC50, cells fed with added oleic acid
[2] = measured here: cell number channel AC50, cells fed with added oleic acid

| SMILES | cell number change [%] | AC50 [1] | AC50 [2] |
| --- | --- | --- | --- |
| COc1ccccc1C(C)Nc1ccc(S(=O)(=O)N2CCN(C)CC2)cc1[N+](=O)[O-] (stereo unspecified) | -11.8 | 0.146 µM [falling, full curve, poor fit] | – |
| CCCCCC(=O)N1CCCCC1 | – | – | 0.58 µM [falling, single point] |
| Cn1nc(CC(=O)NCc2cccc3ccccc23)c2ccccc2c1=O | – | 1.46 µM [rising, partial curve] | 2.91 µM [rising, single point] |
| CCOc1ccc(NC(=O)CCCc2cc(-c3ccc(OCC)cc3)on2)cc1 | 31.7 | – | – |
| COc1cc(OC)cc(C(=O)NCC2CCCO2)c1 (stereo unspecified) | -34.6 | – | 32.6 µM [falling, partial curve] |
| COc1ccc(OC)c2c1sc(=NC(=O)c1cccc(N3C(=O)CCC3=O)c1)n2C | -86.2 | 23.1 µM [falling, single point] | 29.1 µM [falling, single point] |
| CC1=CC(C)(C)n2c(O)c(N=N)c3c(C)ccc1c32 | -42 | 14.6 µM [falling, partial curve, poor fit] | – |
| Cc1ccc2cc(C=O)c(N(C)C)nc2c1 | 9.37 | 9.2 µM [falling, partial curve, poor fit] | – |
| CSc1ccc(/C=N/n2c(C)nnc2C)cc1 | -18.7 | – | – |
| Cc1ccsc1C(=O)OCC(=O)Nc1cccc(S(=O)(=O)N2CCOCC2)c1 | -21.9 | 18.4 µM [falling, single point] | – |
| CN(CCc1ccccn1)C(=O)CN(C)S(=O)(=O)c1ccc2c(c1)c(=O)n(C)c(=O)n2C | 7.36 | – | – |
| CN(C(=O)C(C)(C)C)C1c2c(ccc3ccccc23)OCC1CO (stereo unspecified) | -27.7 | 29.1 µM [falling, single point] | – |
| Nc1ccc2oc(-c3cc(Br)ccc3Cl)nc2c1 | -5.1 | 1.64 µM [rising, full curve, poor fit] | – |
| CC(=O)Nc1cccc(OCCCNS(=O)(=O)c2ccc(F)cc2)c1 | -41.1 | 7.31 µM [falling, partial curve] | 6.51 µM [falling, full curve] |
| O=C(Nc1ccc(F)cc1F)c1ccc2c(=O)n3c(nc2c1)CCC3 | -2.67 | 29.1 µM [falling, single point] | – |
| O=C(CN1CCCCC1)NC(=O)NCc1ccccc1 | -7.33 | 29.1 µM [falling, single point] | – |
| COC(=O)NC(=S)Nc1ccc(Oc2ccc(Cl)cc2)c(Cl)c1 | 2.89 | 2.06 µM [rising, partial curve] | – |
| COc1ccc(NC(=O)Nc2cccc(C(F)(F)F)c2)cn1 | – | – | 0.58 µM [rising, single point] |
| CC(=O)Nc1ccccc1NS(=O)(=O)c1ccc(Cl)cc1 | 73.5 | – | 9.2 µM [rising, partial curve] |
| Oc1c(CN2CCOCC2)cc(COCc2ccccc2)c2cccnc12 | -10 | 16.4 µM [falling, single point] | – |

Laid out differently: 12 of the compounds above.
SMILES | cell number change [%] | AC50 [1] | AC50 [2]
Cn1nc(CC(=O)NCc2cccc3ccccc23)c2ccccc2c1=O | – | 1.46 µM [rising, partial curve] | 2.91 µM [rising, single point]
CCOc1ccc(NC(=O)CCCc2cc(-c3ccc(OCC)cc3)on2)cc1 | 31.7 | – | –
COc1cc(OC)cc(C(=O)NCC2CCCO2)c1 (stereo unspecified) | -34.6 | – | 32.6 µM [falling, partial curve]
COc1ccc(OC)c2c1sc(=NC(=O)c1cccc(N3C(=O)CCC3=O)c1)n2C | -86.2 | 23.1 µM [falling, single point] | 29.1 µM [falling, single point]
CC1=CC(C)(C)n2c(O)c(N=N)c3c(C)ccc1c32 | -42 | 14.6 µM [falling, partial curve, poor fit] | –
Cc1ccc2cc(C=O)c(N(C)C)nc2c1 | 9.37 | 9.2 µM [falling, partial curve, poor fit] | –
CSc1ccc(/C=N/n2c(C)nnc2C)cc1 | -18.7 | – | –
Cc1ccsc1C(=O)OCC(=O)Nc1cccc(S(=O)(=O)N2CCOCC2)c1 | -21.9 | 18.4 µM [falling, single point] | –
CN(CCc1ccccn1)C(=O)CN(C)S(=O)(=O)c1ccc2c(c1)c(=O)n(C)c(=O)n2C | 7.36 | – | –
CN(C(=O)C(C)(C)C)C1c2c(ccc3ccccc23)OCC1CO (stereo unspecified) | -27.7 | 29.1 µM [falling, single point] | –
Nc1ccc2oc(-c3cc(Br)ccc3Cl)nc2c1 | -5.1 | 1.64 µM [rising, full curve, poor fit] | –
CC(=O)Nc1cccc(OCCCNS(=O)(=O)c2ccc(F)cc2)c1 | -41.1 | 7.31 µM [falling, partial curve] | 6.51 µM [falling, full curve]

Continued.

| SMILES | cell number change [%] | AC50 [1] | AC50 [2] |
| --- | --- | --- | --- |
| COc1ccc(NS(=O)(=O)c2cc(NC(=O)c3ccco3)ccc2N2CCCCC2)cc1 | -9.77 | 4.61 µM [falling, single point] | – |
| COc1ccccc1Oc1ccc(Oc2ccccc2OC)cc1 | -9.65 | 0.517 µM [falling, partial curve, poor fit] | – |
| CN(C)/C=C/C(=O)c1ccc(Br)cc1 | -40.1 | 0.461 µM [falling, full curve] | 29.1 µM [falling, single point] |
| Cc1nnsc1C(=O)NNS(=O)(=O)c1cc(C(F)(F)F)cc(C(F)(F)F)c1 | -46.2 | 18.4 µM [falling, single point] | 29.1 µM [falling, single point] |
| COc1ccc(-c2nc(SCC(=O)N3CCOCC3)n[nH]2)cc1 | 30.1 | – | – |
| O=C(c1ccc2snnc2c1)N1CCOCC1 | -5.56 | 0.13 µM [falling, single point] | – |
| CC1=CC(=O)CC2C1(C)CCC(C)C2(C)CCC(C)CC(=O)O (stereo unspecified) | -1.78 | 0.00651 µM [falling, full curve, poor fit] | – |
| COc1cccc(CNC(=O)Cc2c(C(=O)O)[nH]c3ccccc23)c1 | -22.8 | 6.51 µM [falling, single point] | 6.51 µM [falling, single point] |
| CCCOc1ccc(C(=O)NC(=S)Nc2nc(C)c(C(=O)N(C)C)s2)cc1 | – | 6.51 µM [rising, single point] | 1.84 µM [rising, partial curve, poor fit] |
| COc1cccc(C2=NOC(C(=O)Nc3c(C)n(C)n(-c4ccccc4)c3=O)C2)c1 (stereo unspecified) | 9.24 | 0.411 µM [falling, full curve] | – |
| O=c1[nH]c2ccc(Br)cc2c(-c2ccccc2)c1N1CCOCC1 | 8.59 | 6.51 µM [rising, partial curve] | 2.59 µM [rising, single point] |
| O=C1CC(c2ccccc2)n2nc(N3C(=O)c4ccccc4C3=O)nc2N1 (stereo unspecified) | -11.8 | – | – |
| CS(=O)(=O)Nc1ccc(C(=O)CC(=O)Nc2ccc([N+](=O)[O-])cc2)cc1 | 3.23 | 29.1 µM [rising, single point] | – |
| Cc1cccc(NC(=O)c2ccc(OCc3c(C)noc3C)cc2)c1 | 5.56 | 0.366 µM [rising, partial curve, poor fit] | – |
| O=C(Nc1ccc(F)cc1)c1nsc(Cl)c1Cl | -17.8 | 20.6 µM [falling, single point] | – |
| O=C(CN1C(=O)C2CCCCC2C1=O)NC1CCCc2ccccc21 (stereo unspecified) | -18.5 | – | – |
| COCCNC(=O)C(=O)Nc1cc2c3c(c1)CC(=O)N3CCC2 | -23.9 | – | – |
| COc1ccc(Nc2nc3ccccc3n3cnnc23)cc1 | -2.63 | 6.51 µM [rising, single point] | – |
| O=C(c1ccncc1)N1CCN(c2ccc3ccccc3n2)CC1 | -6.15 | – | 6.51 µM [falling, single point] |
| Cc1onc(-c2c(Cl)cccc2Cl)c1C(=O)N1CCOCC1 | 22.7 | – | – |
